The experiment has as its system APP/PS1 transgenic mice. Kind of experiment: Alzheimer's disease model, eight-arm radial water maze and brain gene expression. The experiment is classed as in vivo, mouse. To be noted: 30 days in food. The source says: A common indicator used in academia in memory and dementia experiments is the number of errors in the water maze (reference memory). More errors mean poorer memory. On the last 3 days of dosing, eight-arm radial water maze was used by experimenters who were blind to drug treatment. As a classic experimental instrument, to detect slight deficits in learning and memory, the eight-arm water maze is more sensitive than not only Morris maze, but also Six-arm radial water maze. For details, see reference 8: Alamed J et al. Two-day radial-arm water maze learning and memory task; robust resolution of amyloid-related memory deficits in transgenic mice [J]. […] This experiment uses an eight-arm water maze built in accordance with the above literature. The eight-arm water maze is placed in a basin with an interior diameter of 102 cm. Each arm measures 30 cm long, 14.5 cm wide, and 40 cm high. Escape platform is located at the end of one of the arms. In the reference memory version of the task described here, the goal arm is held constant for all trials, with a different start arm on successive trials. On day one, mice received 12 trials, with trials alternating between visible and hidden platform. On day 2 and 3, mice received 12 additional trials but the platform was kept hidden throughout the trials. Entry into an incorrect arm was scored as a spatial reference error. Errors were averaged into three trial blocks, with four blocks per day, e.g., the first block (the 1st to 3rd trial), the second block (the 4th to 6th trial), and so on. […]. The line charts were made with the number of blocks as the abscissa and the average of the number of errors as the ordinate. At the end of the experiments, the cerebral cortex and hippocampus of the mice were removed, RNA was extracted, and the expression of many genes was analyzed by semi-quantitative RT-PCR. […] The difference is significant with P<0.05.

As to `COc1cc2c(cc1OC)C(=O)C(CC1CCN(Cc3ccccc3)CC1)C2` (stereo not drawn) [donepezil, reference compound], where the note is “10 mg/kg body weight/day (donepezil 3 mg/kg body weight/day), 5 on the first day”, the “number of errors in water maze on the third day” value is around 1. Besides, the “reduction in the number of errors (reference memory), third day compared with first day” value (10 mg/kg body weight/day (donepezil 3 mg/kg body weight/day), eight-arm water maze) is reported as “significant”. Also, the “expression levels of neuroprotective genes in the brain (klotho, MnSOD, Prx-2, Gng11, GluN2B, Bcl-xl) versus control group” value (RT-PCR) was “None of the abovementioned gene expression levels in donepezil group was significantly increased”.
